Measured values from patent US20050004138A1 (Pfizer Inc, priority 2003, published 2005).
For at least one compound, name, drawing or mass did not settle the structure.

Legend:
Social Phobia = experiment: Treatment of subjects diagnosed with Social Phobia; type: in vivo, human; conditions: subjects aged 18 to 55 years with Social Phobia, about 40 to about 200 mg/day
Specific Phobia = experiment: Treatment of subjects diagnosed with Specific Phobia; type: in vivo, human; conditions: subjects aged 18 to 55 years with Specific Phobia, about 40 to about 200 mg/day
[1] = single or multiple dose regimens

O=C1Cc2cc(CCN3CCN(c4nsc5ccccc45)CC3)c(Cl)cc2N1 [Ziprasidone, 5-(2-(4-(1,2-benzisothiazol-3-yl)piperazinyl)ethyl)chlorooxindole]
avoidance behavior (Social Phobia): marked decrease in avoidance behavior
anxiety provoked by exposure to social situations (response to treatment) (Social Phobia; [1]): significant reduction in anxiety
avoidance behavior (Specific Phobia): marked decrease in avoidance behavior
anxiety provoked by exposure to the feared object or situation (response to treatment) (Specific Phobia; [1]): significant reduction in anxiety
